{
  "source": "patent EP1060742A1",
  "about": "“INTERSTITIAL ADENOSINE LEVEL-ELEVATING AGENTS” (priority 1998, dated 1999)",
  "tested_on": "normal healthy golden hamsters (F1B strain)",
  "format": "in vivo, hamster",
  "experimental": "Male cardiomyopathic Syrian hamsters (Bio 14.6 strain) aged 7 weeks were used. Male aged-matched normal healthy golden hamsters (F1B strain) were used as control animals. These hamsters were purchased from Biobreeders Inc. Throughout the test period, the animals were housed in stainless steel cage in a temperature (23 ± 1C° )controlled room where a daily light-dark cycle was maintained artificially at 12 hours intervals. The animals were fed with commercially available pellet (CE-2, CLEA Japan, Inc.) and provided adde libitum with feed pellets and water. […]\nBody weight was recorded on every Monday and Thursday after the administration of the test compound. […]\nBlood samples were collected before administration of the test compound, and 45 and 88 days after administration. […] Blood plasma was separated from the samples and plasma norepinephrine (NE) levels were measured using a catecholamine assay system.\nMyocardial tissue preparations were prepared 88 days after the administration was started. […] Weight of the hearts was measured and the hearts were fixed in a 10% buffered neutral formaldehyde solution. […] The preparations of the hearts so prepared were measured in area for regions of cardiac fibrosis, mineral deposition, myocardial necrosis, and macrophage infiltration, using an image analyzing system (Mac SCOPE Ver.2.1, Mitsuya Shoji). […]",
  "data": [
    {"smiles": "COC(=O)C12C(O)C(C(=O)Cc3ccccn3)=NN1C(c1ccccc1)C=CC2c1ccccc1", "note": "(centres unmarked) [compound No.1, 2,5-diphenyl-7-hydroxy-6-methoxycarbonyl-8-(2-pyridyl)acetyl-1,9-diazabicyclo[4.3.0]-nona-3,8-dien]", "values": [
      {"measurement": "plasma NE level", "setting": "88 days after administration", "result": "had no effect"},
      {"measurement": "relative heart weight", "setting": "day 88, oral", "result": "did not affect"}
    ]}
  ]
}
